Experimental data: PubChem BioAssay AID1224830 (NIAID, 2016)
Aim: 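Genes whose knock-down alters the TNF-alpha reporter response to LPS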 (primary screen). Cell system: human THP-1 monocytic leukaemia cells, TNF dual-luciferase reporter clone, PMA-differentiated to macrophage-like cells. Reagent: siRNA pool against human genes, 50 nM. Duration: LPS for 4 h, given about 3 days after siRNA transfection. Conditions: bacterial LPS (TLR4 ligand), 10 ng/ml. Measurement: 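TNF firefly reporter luminescence divided by renilla, normalised to the plate median, then turned into a robust z-score for each replicate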. Direction: TNF reporter robust z-score: higher = stronger TNF reporter response to LPS. Active means: 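Each well counts as active if its z-score is over 2.8 or under -1.5; controls are left without a call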.
Here is an unselected part of about 18,000 reagents tested. About 2,900 of them (16%) were called active. 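Calls are made per well; low scores hint the gene aids the LPS response, high scores that it dampens it.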 Entries without a mark were called inactive. Repeated entries: four replicate wells of each siRNA pool. Reagent sequences are not shown.

Gene | TNF reporter robust z-score
ZBTB3 | -0.73
ZBTB3 | -0.38
ZBTB3 | -0.34
ZBTB3 | -0.05
NCAPD2 | -1.22
NCAPD2 | -0.78
NCAPD2 | -0.86
NCAPD2 | -1.02
CLASP2 | 1.64
CLASP2 | 1.58
CLASP2 | 0.11
CLASP2 | 0.6
MAGEA9 | -1.18
MAGEA9 | 0.88
MAGEA9 | 0.42
MAGEA9 | 0.16
SAMD8 | -1.19
SAMD8 | 1.51
SAMD8 | -1.08
SAMD8 | 0.6
ARHGEF4 | 0.06
ARHGEF4 | 1.37
ARHGEF4 | 1.52
ARHGEF4 | 0.36
HOXA13 | -0.71
HOXA13 | -0.26
HOXA13 | -0.34
HOXA13 | 0.04
THEMIS | 1.06
THEMIS | 1.26
THEMIS | 0.91
THEMIS | 2.06
TAOK1 | 0.99
TAOK1 | 0.1
TAOK1 | 0.26
TAOK1 | -0.83
RHOC | -0.18
RHOC | -0.03
RHOC | -0.02
RHOC | 0.91
IMPACT | -0.92
IMPACT | 0.24
IMPACT | -0.63
IMPACT | -0.86
SGCZ | 1.15
SGCZ | 2.81 (active)
SGCZ | -0.53
SGCZ | 1.52

Reagents listed so far marked active, once more:
Gene | TNF reporter robust z-score
SGCZ | 2.81 (active)
